Values as published with doi:10.1371/journal.pone.0140310, rounded.

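Human melanoma cells were exposed to two drugs together for 72 h in 1,536-well plates and read by automated microscopy after fixing and staining. Values are the number of DAPI-stained nuclei as a percentage of the DMSO control: 100 is no effect, lower means fewer cells. Every drug was used at one fixed concentration, the higher of two screened. The file gives one value for each pair and line, without errors, so small differences may be noise.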 An unselected part of the screen is shown.

Drug key:
stibogluconate, 10000 nM: O=C(O)[C@@H]1[O][Sb](=[O])([O][Sb]2(=[O])[O][C@H]([C@H](O)CO)[C@H](O)[C@H](C(=O)O)[O]2)[O][C@H]([C@H](O)CO)[C@@H]1O (some centres not stated)
PLX4720, 400 nM: CCCS(=O)(=O)Nc1ccc(F)c(C(=O)c2c[nH]c3ncc(Cl)cc23)c1F
MK-1775, 100 nM: C=CCn1c(=O)c2cnc(Nc3ccc(N4CCN(C)CC4)cc3)nc2n1-c1cccc(C(C)(C)O)n1
IMD-0354, 80 nM: O=C(Nc1cc(C(F)(F)F)cc(C(F)(F)F)c1)c1cc(Cl)ccc1O
CP-690550, 5000 nM: C[C@@H]1CCN(C(=O)CC#N)C[C@@H]1N(C)c1ncnc2[nH]ccc12
CHIR-265, 400 nM: Cn1c(Nc2ccc(C(F)(F)F)cc2)nc2cc(Oc3ccnc(-c4ncc(C(F)(F)F)[nH]4)c3)ccc21
PD173074, 500 nM: CCN(CC)CCCCNc1ncc2cc(-c3cc(OC)cc(OC)c3)c(NC(=O)NC(C)(C)C)nc2n1
cisplatin, 8000 nM: N.N.[Cl][Pt][Cl]

Results for cisplatin + IMD-0354 are COLO 792: 94.4; WM3619: 112; C32: 95.4; COLO 829: 96.8; WM451Lu: 101; COLO 800: 71.9. Results for cisplatin + PLX4720 are COLO 792: 82.9; WM3619: 79.0; C32: 90.8; COLO 829: 88.9; WM451Lu: 91.8; COLO 800: 96.6. For stibogluconate + MK-1775 the values were COLO 792: 49.0; WM3619: 44.5; C32: 88.5; COLO 829: 80.5; WM451Lu: 92.4; COLO 800: 85.8.

Results for CHIR-265 + cisplatin are COLO 792: 93.0; WM3619: 72.9; C32: 90.2; COLO 829: 96.0; WM451Lu: 97.8; COLO 800: 100. cisplatin + CP-690550 gave COLO 792: 96.9; WM3619: 84.9; C32: 80.2; COLO 829: 108; WM451Lu: 82.5; COLO 800: 61.9. stibogluconate + IMD-0354 gave COLO 792: 96.3; WM3619: 82.7; C32: 119; COLO 829: 112; WM451Lu: 119; COLO 800: 80.1.

Results for IMD-0354 + PD173074 are COLO 792: 122; WM3619: 109; C32: 104; COLO 829: 113; WM451Lu: 109; COLO 800: 129. For stibogluconate + CHIR-265 the values were COLO 792: 24.5; WM3619: 45.3; C32: 46.4; COLO 829: 64.5; WM451Lu: 57.1; COLO 800: 79.2. With stibogluconate + PLX4720 the screen read COLO 792: 89.9; WM3619: 96.7; C32: 80.1; COLO 829: 77.9; WM451Lu: 54.8; COLO 800: 101.

CP-690550 + PLX4720 gave COLO 792: 68.9; WM3619: 82.0; C32: 83.2; COLO 829: 75.3; WM451Lu: 75.7; COLO 800: 72.1. With MK-1775 + cisplatin the screen read COLO 792: 58.5; WM3619: 23.9; C32: 90.3; COLO 829: 73.8; WM451Lu: 76.1; COLO 800: 49.9. Results for PD173074 + CP-690550 are COLO 792: 81.5; WM3619: 108; C32: 94.7; COLO 829: 100; WM451Lu: 98.3; COLO 800: 71.3.

For CHIR-265 + CP-690550 the values were COLO 792: 30.8; WM3619: 50.5; C32: 53.5; COLO 829: 77.6; WM451Lu: 59.9; COLO 800: 99.6. PLX4720 + PD173074 gave COLO 792: 118; WM3619: 93.2; C32: 85.0; COLO 829: 86.2; WM451Lu: 97.0; COLO 800: 87.6. Results for CHIR-265 + PLX4720 are COLO 792: 21.8; WM3619: 74.0; C32: 42.9; COLO 829: 42.9; WM451Lu: 37.6; COLO 800: 37.9.

With stibogluconate + CP-690550 the screen read COLO 792: 135; WM3619: 98.3; C32: 100; COLO 829: 107; WM451Lu: 96.9; COLO 800: 109. Results for PLX4720 + MK-1775 are COLO 792: 67.3; WM3619: 43.4; C32: 72.3; COLO 829: 65.2; WM451Lu: 52.5; COLO 800: 57.8. For PD173074 + stibogluconate the values were COLO 792: 95.6; WM3619: 98.8; C32: 104; COLO 829: 112; WM451Lu: 72.5; COLO 800: 91.3.

For PD173074 + CHIR-265 the values were COLO 792: 20.3; WM3619: 66.2; C32: 43.0; COLO 829: 78.7; WM451Lu: 54.7; COLO 800: 59.0. For cisplatin + stibogluconate the values were COLO 792: 97.8; WM3619: 79.4; C32: 100; COLO 829: 113; WM451Lu: 83.1; COLO 800: 111. Results for MK-1775 + CHIR-265 are COLO 792: 24.1; WM3619: 38.3; C32: 52.9; COLO 829: 52.1; WM451Lu: 51.5; COLO 800: 95.1.

For CHIR-265 + IMD-0354 the values were COLO 792: 26.9; WM3619: 50.7; C32: 58.4; COLO 829: 72.6; WM451Lu: 57.6; COLO 800: 105. IMD-0354 + PLX4720 gave COLO 792: 89.1; WM3619: 76.6; C32: 80.1; COLO 829: 78.1; WM451Lu: 72.7; COLO 800: 67.8. For MK-1775 + CP-690550 the values were COLO 792: 71.6; WM3619: 54.1; C32: 84.6; COLO 829: 80.4; WM451Lu: 85.4; COLO 800: 75.9.

IMD-0354 + CP-690550 gave COLO 792: 97.0; WM3619: 101; C32: 102; COLO 829: 117; WM451Lu: 104; COLO 800: 131.

The first 2 entries again:

Pair	COLO 792	WM3619	C32	COLO 829	WM451Lu	COLO 800
cisplatin + IMD-0354	94.4	112	95.4	96.8	101	71.9
cisplatin + PLX4720	82.9	79.0	90.8	88.9	91.8	96.6